Source: paper PMC11912475 (Journal of Medicinal Chemistry, 2025)

Test system: Glutamate, NMDA, Phencyclidine binding site
Test: Radioligand displacement binding assay, [3H]TCP, NMDA
Design: species or system Wistar rat

## CCC(=O)C(C[C@H](C)N(C)C)(c1ccccc1)c1ccccc1 [(S)-methadone, 6-(Dimethylamino)-4,4-diphenylheptan-3-one, reference compound]
1 μM
  % inhibition of binding, NMDA: 23%
10 μM
  % inhibition of binding, NMDA: 68%
